Assay results taken from patent publication US20200325476.

Molecular target: alpha-synuclein (monomer) (UniProt P37840)
Assay: inhibition of the protein
Conditions: mean aggregate size by TEM, control without aptamer 242±220 nm, PBS, 37 C, purified recombinant protein, single-stranded DNA, dose not given here

Sequence | functional effect of the aptamer | functional effect of the aptamer (no fibrils seen under MJFF protocol)
ATAGTCCCATCATTCATTGAACGGAATGGCGCGGTGACCGGATAGTGTAGATATTAGCAAGTGTCA [a-syn-4 (LTMull)] | active | –
ATAGTCCCATCATTCATTGTAAGGAAACGCTACGGGGTGGGTACGGCAAGATATTAGCAAGTGTCA [a-syn-1 (1LBwAAjJ)] | – | active
ATAGTCCCATCATTCATTGTATGAGATGGGGTGGTGACGTCAGCATGGAGATATTAGCAAGTGTCA [a-syn-3 (GdJUhe)] | active | –
ATAGTCCCATCATTCATTGTATGATACAGTGAGGTGGCAGATGCATGCAGATATTAGCAAGTGTCA [a-syn-5 (JueRc)] | active | –
ATAGTCCCATCATTCATTGTATGGTACGGCGCGGTGGCGGGTGCGGGGAGATATTAGCAAGTGTCA [a-syn-2 (1LBiGJFJC)] | active | –
